Source: the supplement of paper PMC6411743
± gives the standard deviation of the averaged measurements. The list shows a part of the results, in another mix than the full data. Small differences around the control level are noise.

The chains behind the UniProt entries cited, without tags or fusion partners. Where a name states a change or a piece, a line headed by the entry shows the natural chain unless it says otherwise.
UniProt P10644, whole entry: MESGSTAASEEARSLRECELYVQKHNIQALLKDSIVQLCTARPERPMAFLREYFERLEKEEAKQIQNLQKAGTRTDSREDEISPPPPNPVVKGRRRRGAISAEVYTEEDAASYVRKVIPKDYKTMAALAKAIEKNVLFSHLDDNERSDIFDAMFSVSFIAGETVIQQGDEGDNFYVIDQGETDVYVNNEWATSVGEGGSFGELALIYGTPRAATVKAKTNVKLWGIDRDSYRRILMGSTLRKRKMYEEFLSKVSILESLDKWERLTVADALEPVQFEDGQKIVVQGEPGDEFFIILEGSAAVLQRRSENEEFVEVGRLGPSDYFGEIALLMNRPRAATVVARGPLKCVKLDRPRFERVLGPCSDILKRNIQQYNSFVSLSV
UniProt P11310: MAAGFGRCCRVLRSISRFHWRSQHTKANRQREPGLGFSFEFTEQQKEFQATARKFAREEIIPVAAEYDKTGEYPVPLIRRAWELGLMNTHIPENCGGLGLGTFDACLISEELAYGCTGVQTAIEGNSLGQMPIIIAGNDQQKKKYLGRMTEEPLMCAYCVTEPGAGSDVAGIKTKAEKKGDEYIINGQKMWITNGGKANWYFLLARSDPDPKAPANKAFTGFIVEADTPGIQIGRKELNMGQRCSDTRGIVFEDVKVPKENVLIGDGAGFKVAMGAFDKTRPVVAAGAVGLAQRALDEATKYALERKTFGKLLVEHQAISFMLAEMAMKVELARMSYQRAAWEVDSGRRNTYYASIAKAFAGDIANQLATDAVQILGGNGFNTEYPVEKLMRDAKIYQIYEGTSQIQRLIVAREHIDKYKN
UniProt P15848: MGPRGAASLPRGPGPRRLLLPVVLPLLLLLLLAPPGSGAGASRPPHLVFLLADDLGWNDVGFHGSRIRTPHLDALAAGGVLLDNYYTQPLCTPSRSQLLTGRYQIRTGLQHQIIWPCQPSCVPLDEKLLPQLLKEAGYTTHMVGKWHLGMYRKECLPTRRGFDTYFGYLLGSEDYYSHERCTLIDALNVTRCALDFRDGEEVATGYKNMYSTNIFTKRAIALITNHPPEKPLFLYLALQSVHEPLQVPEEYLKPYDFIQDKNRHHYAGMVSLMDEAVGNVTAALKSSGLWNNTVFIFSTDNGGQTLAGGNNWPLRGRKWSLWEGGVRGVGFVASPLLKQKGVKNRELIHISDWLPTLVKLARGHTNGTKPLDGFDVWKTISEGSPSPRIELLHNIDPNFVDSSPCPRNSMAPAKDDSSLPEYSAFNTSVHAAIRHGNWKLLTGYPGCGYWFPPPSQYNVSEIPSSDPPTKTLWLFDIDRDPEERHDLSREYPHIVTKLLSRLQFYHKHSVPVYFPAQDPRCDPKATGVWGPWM
UniProt P09914: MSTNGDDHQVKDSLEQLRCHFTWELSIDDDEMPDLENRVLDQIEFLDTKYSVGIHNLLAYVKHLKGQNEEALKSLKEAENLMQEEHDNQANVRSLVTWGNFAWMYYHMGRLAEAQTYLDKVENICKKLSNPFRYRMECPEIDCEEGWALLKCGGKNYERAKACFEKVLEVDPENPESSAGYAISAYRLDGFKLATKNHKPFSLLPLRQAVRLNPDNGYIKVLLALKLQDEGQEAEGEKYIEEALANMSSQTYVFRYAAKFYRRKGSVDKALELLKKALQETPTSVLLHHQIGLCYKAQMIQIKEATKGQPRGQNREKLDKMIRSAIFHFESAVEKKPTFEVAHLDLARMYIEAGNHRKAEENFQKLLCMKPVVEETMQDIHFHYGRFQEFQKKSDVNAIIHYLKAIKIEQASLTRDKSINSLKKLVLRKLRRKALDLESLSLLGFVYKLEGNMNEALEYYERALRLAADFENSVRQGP
UniProt P13929, whole entry: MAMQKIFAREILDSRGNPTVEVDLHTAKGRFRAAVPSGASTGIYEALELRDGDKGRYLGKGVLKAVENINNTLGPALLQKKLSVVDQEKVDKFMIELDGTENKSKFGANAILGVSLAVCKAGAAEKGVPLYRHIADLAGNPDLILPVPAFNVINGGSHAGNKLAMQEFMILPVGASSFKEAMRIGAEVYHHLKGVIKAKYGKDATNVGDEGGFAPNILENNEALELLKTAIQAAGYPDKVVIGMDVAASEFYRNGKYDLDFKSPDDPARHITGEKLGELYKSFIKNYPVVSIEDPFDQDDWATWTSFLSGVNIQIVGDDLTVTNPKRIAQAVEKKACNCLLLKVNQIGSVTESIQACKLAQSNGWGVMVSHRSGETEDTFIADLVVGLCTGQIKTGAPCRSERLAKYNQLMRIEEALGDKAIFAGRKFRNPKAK
UniProt P02795: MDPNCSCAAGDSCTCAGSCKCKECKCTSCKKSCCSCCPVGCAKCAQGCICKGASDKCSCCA
UniProt O95801: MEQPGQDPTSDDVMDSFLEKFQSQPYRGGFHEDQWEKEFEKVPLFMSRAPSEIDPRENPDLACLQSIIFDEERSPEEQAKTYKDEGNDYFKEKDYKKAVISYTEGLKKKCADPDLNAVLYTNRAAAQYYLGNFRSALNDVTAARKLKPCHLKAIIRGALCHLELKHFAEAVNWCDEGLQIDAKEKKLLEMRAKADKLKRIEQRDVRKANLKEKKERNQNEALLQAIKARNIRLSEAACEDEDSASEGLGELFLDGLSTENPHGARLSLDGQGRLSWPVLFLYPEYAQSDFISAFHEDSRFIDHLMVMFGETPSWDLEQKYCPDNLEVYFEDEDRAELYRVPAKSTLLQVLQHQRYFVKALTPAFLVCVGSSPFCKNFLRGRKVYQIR
UniProt P14209: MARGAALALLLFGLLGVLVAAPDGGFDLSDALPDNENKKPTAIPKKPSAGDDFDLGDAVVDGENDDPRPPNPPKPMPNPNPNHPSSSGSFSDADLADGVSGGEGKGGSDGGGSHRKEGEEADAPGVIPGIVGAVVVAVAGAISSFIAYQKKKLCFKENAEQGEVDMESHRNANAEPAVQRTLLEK
UniProt P00519, whole entry: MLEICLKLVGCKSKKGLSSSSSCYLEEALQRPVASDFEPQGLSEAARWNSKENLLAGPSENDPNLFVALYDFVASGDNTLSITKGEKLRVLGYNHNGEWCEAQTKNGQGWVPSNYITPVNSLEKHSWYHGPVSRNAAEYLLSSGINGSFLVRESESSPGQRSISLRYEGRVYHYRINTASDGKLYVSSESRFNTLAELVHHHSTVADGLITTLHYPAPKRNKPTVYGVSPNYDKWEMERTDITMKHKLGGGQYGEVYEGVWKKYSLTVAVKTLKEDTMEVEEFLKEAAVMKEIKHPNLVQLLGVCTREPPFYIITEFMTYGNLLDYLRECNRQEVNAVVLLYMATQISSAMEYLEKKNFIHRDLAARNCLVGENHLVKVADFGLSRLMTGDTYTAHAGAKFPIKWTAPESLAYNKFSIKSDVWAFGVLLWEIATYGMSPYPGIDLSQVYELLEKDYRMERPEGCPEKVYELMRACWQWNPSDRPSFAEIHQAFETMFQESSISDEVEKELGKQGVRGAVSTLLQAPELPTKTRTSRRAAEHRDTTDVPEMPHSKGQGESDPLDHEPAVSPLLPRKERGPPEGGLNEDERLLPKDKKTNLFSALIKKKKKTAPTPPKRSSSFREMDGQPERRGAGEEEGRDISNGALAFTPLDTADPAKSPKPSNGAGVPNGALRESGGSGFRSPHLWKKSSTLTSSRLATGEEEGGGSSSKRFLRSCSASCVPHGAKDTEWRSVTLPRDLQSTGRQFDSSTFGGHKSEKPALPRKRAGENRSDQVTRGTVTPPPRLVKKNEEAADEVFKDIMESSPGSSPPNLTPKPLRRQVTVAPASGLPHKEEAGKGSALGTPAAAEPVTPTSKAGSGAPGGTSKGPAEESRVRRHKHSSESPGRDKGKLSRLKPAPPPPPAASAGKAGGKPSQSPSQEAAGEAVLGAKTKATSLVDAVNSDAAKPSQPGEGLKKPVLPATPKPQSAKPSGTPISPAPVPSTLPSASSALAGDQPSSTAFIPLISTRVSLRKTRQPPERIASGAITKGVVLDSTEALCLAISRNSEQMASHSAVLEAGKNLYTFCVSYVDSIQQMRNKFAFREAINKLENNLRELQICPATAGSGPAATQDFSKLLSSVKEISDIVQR
UniProt P05387, whole entry: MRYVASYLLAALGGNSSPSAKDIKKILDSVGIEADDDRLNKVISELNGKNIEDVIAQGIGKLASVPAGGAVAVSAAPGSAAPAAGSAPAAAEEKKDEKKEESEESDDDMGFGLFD
UniProt P15104, whole entry: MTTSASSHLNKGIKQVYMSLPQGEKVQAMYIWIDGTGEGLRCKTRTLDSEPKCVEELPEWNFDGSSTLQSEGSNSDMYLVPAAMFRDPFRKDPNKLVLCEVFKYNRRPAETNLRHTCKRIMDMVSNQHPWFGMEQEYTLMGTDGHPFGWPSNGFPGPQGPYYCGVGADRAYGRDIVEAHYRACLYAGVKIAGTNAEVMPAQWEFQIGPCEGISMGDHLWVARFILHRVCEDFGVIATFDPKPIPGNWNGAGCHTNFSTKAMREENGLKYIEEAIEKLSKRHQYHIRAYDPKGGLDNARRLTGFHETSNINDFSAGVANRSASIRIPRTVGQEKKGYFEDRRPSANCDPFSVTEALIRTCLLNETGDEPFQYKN
UniProt P05362: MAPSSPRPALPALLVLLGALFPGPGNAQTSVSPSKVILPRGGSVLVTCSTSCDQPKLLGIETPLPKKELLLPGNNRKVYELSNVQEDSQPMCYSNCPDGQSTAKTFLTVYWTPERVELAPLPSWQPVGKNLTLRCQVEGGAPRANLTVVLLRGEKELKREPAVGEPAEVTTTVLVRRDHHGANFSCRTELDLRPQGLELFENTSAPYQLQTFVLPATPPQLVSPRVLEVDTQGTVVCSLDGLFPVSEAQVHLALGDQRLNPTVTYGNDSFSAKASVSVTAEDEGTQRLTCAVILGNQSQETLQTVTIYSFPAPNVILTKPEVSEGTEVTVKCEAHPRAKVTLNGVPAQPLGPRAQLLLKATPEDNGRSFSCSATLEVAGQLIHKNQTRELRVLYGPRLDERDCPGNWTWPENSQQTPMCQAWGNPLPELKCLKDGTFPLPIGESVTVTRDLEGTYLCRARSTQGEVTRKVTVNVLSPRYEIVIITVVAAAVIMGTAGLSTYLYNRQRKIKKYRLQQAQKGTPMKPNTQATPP
UniProt P04066: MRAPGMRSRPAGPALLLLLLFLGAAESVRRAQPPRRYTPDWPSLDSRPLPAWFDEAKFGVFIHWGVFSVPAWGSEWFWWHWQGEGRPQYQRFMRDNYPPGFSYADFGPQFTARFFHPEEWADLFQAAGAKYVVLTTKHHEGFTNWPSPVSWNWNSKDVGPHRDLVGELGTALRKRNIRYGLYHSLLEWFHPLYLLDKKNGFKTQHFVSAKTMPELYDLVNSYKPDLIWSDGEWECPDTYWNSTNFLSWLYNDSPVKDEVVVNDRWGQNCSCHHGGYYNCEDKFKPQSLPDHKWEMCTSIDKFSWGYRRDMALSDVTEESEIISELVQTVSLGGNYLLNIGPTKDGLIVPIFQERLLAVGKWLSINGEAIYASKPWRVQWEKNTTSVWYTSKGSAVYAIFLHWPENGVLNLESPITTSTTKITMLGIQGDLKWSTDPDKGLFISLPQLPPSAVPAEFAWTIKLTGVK
UniProt P02786, whole entry, looked up: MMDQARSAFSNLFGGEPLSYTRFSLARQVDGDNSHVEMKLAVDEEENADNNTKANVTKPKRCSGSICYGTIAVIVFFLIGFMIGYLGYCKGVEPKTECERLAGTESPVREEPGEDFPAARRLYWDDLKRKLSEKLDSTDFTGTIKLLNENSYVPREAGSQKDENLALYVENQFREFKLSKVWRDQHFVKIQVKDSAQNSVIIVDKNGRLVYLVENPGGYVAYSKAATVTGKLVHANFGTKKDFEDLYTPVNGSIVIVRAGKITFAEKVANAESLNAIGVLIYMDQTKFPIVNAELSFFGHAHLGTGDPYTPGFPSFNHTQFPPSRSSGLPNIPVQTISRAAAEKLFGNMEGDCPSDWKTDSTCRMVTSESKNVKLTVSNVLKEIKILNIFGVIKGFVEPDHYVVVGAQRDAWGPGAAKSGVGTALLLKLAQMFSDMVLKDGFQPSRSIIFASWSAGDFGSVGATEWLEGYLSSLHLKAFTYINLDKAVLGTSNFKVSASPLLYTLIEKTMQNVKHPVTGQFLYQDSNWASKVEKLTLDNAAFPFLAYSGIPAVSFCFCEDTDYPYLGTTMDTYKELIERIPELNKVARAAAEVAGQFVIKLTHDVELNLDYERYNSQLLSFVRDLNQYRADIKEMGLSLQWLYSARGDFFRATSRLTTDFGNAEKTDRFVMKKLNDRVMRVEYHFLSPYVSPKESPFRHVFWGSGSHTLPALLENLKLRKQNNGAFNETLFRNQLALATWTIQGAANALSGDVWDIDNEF
UniProt O95873: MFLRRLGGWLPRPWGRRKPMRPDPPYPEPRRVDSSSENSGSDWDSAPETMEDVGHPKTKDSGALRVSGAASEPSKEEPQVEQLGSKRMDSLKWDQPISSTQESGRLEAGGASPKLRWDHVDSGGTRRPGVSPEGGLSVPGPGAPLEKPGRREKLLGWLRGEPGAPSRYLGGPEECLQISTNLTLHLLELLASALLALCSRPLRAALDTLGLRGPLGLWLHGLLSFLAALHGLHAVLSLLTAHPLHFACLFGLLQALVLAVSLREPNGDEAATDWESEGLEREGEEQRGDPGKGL

compound: Nc1ncnc2c1ncn2[C@@H]1O[C@H](COP(=O)(O)OP(=O)(O)OP(=O)(O)O)[C@@H](O)[C@H]1O [adenosine triphosphate]; assay: NP40-soluble protein abundance relative to vehicle (solubility fold change) (ratio); higher = more soluble protein in presence of ATP; conditions: concentration: 0.1mM
Outline: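 Jurkat crude lysate prepared with a Dounce homogeniser was treated at eight concentrations spanning 0.1 to 10 mM, 10 min at room temperature then 3 min at 37 °C. Solubilisation with 0.8% NP40 and benzonase and ultracentrifugation preceded TMT labelling of the supernatant for LC-MS/MS. Fold change against the detergent-processed vehicle was determined per replicate from vsn-normalised intensities, across three independent experiments.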

Target	NP40-soluble protein abundance
PRKAR1A (UniProt P10644)	1.01 ± 0.026
H1F0 (UniProt P07305)	0.981 ± 0.039
UniProt P11310 and related entries	1.01 ± 0.036
PEPD (UniProt P12955)	1.06 ± 0.088
RAF1 (UniProt P04049)	1.01 ± 0.07
ARSB (UniProt P15848)	0.916 ± 0.092
UniProt P09914 and related entries	0.961 ± 0.076
HSPA5 (UniProt P11021)	0.962 ± 0.031
P00395 and related entries (UniProt Q8IVS2)	1.04 ± 0.096
UQCRH (UniProt P07919)	1 ± 0.086
RAC2 (UniProt P15153)	1 ± 0.047
UniProt P13929 and related entries	1.01 ± 0.07
DBI (UniProt P07108)	0.916 ± 0.096
MT2A (UniProt P02795)	0.923 ± 0.025
UniProt P04150 and related entries	0.979 ± 0.051
UniProt P08236 and related entries	0.998 ± 0.045
UniProt O96017 and related entries	1.05 ± 0.099
TTC4 (UniProt O95801)	1.01 ± 0.022
UniProt P14209 and related entries	0.932 ± 0.11

Target	NP40-soluble protein abundance
IGF2R (UniProt P11717)	0.971 ± 0.015
POR (UniProt P16435)	1.07 ± 0.037
UniProt P09564	1 ± 0.06
FTH1 (UniProt P02794)	0.949 ± 0.14
ENO1 (UniProt P06733)	0.94 ± 0.04
UniProt P00519-2|P00519	1.03 ± 0.043
RPLP2 (UniProt P05387)	0.999 ± 0.17
GLUL (UniProt P15104)	1.02 ± 0.036
UniProt P05362 and related entries	0.992 ± 0.064
BPGM (UniProt P07738)	1.02 ± 0.037
UniProt P11908 and related entries	0.953 ± 0.047
LAMP1 (UniProt P11279)	0.93 ± 0.04
FUCA1 (UniProt P04066)	0.973 ± 0.089
FADS2 (UniProt O95864)	1.05 ± 0.092
UniProt P15882 and related entries	1.03 ± 0.022
CYBA (UniProt P13498)	0.997 ± 0.056
TFRC (UniProt P02786)	0.971 ± 0.032
UniProt P06213 and related entries	0.973 ± 0.02
C6orf47 (UniProt O95873)	0.989 ± 0.17

same assay, conditions: concentration: 0.5mM

Target	NP40-soluble protein abundance
PRKAR1A (UniProt P10644)	0.988 ± 0.066
H1F0 (UniProt P07305)	0.958 ± 0.03
UniProt P11310 and related entries	1.02 ± 0.059
PEPD (UniProt P12955)	1.04 ± 0.076
RAF1 (UniProt P04049)	1.29 ± 0.12
ARSB (UniProt P15848)	0.884 ± 0.054
UniProt P09914 and related entries	1.02 ± 0.092
HSPA5 (UniProt P11021)	0.971 ± 0.053
P00395 and related entries (UniProt Q8IVS2)	1.01 ± 0.05
UQCRH (UniProt P07919)	0.976 ± 0.11
RAC2 (UniProt P15153)	1.02 ± 0.073
UniProt P13929 and related entries	1.05 ± 0.033
DBI (UniProt P07108)	0.92 ± 0.074
MT2A (UniProt P02795)	0.918 ± 0.039
UniProt P04150 and related entries	0.88 ± 0.14
UniProt P08236 and related entries	0.986 ± 0.048
UniProt O96017 and related entries	1.07 ± 0.088
TTC4 (UniProt O95801)	1.01 ± 0.041
UniProt P14209 and related entries	0.908 ± 0.14

Target	NP40-soluble protein abundance
IGF2R (UniProt P11717)	0.967 ± 0.059
POR (UniProt P16435)	1.07 ± 0.064
UniProt P09564	0.976 ± 0.055
FTH1 (UniProt P02794)	0.963 ± 0.14
ENO1 (UniProt P06733)	1.1 ± 0.17
UniProt P00519-2|P00519	1.04 ± 0.052
RPLP2 (UniProt P05387)	0.952 ± 0.059
GLUL (UniProt P15104)	1.01 ± 0.042
UniProt P05362 and related entries	1.02 ± 0.097
BPGM (UniProt P07738)	0.992 ± 0.024
UniProt P11908 and related entries	0.956 ± 0.051
LAMP1 (UniProt P11279)	0.936 ± 0.08
FUCA1 (UniProt P04066)	0.952 ± 0.068
FADS2 (UniProt O95864)	1.05 ± 0.045
UniProt P15882 and related entries	0.969 ± 0.061
CYBA (UniProt P13498)	1.02 ± 0.12
TFRC (UniProt P02786)	0.993 ± 0.023
UniProt P06213 and related entries	0.971 ± 0.025
C6orf47 (UniProt O95873)	0.919 ± 0.089
